For 3 molecules, binding results are on record in paper PMC4931344, “The FNIP co-chaperones decelerate the Hsp90 chaperone cycle and enhance drug binding” (Nature Communications, 2016).

Results are given in words; binding and its absence hold for the method and conditions named. In cells and extracts the contact can be indirect. For part of these data: Binding can be weak; no strength is given. For part of these data: Where a sequence is shown, tags or fusion partners need not be part of it.

Test [1] concerns the target T1, HA–FNIP1-D (amino acids 929–1166) (UniProt Q8TF40).
T1 sequence: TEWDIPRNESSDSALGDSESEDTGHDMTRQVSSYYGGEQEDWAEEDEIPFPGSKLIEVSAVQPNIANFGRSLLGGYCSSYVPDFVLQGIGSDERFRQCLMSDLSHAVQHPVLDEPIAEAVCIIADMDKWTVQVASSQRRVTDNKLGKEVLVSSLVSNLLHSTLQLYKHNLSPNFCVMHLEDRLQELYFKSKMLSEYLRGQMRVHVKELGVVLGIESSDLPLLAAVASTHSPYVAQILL
As to the kind of experiment: co-IP; HA-tagged FNIP1-D co-expressed with FLAG-tagged Hsp90α full length or domains in HEK293; HA–FNIP1-D immunoprecipitated, immunoblot. For orientation: Immunoblotting shows a protein as a band on a membrane.

The target of test [2] is FLAG-tagged Hsp90α C-domain (human). As to the kind of experiment: co-IP; FLAG-tagged Hsp90α N-, M- and C-domains transiently expressed in HEK293, IP with anti-FLAG M2 affinity gel; immunoblot for endogenous FLCN and FNIPs.
The target of test [3] is FLAG-tagged Hsp90α N-domain (human). Described as above.
Test [4] concerns the target FLAG-tagged Hsp90α M-domain (human). The test is described as above.

As to “FLAG-tagged Hsp90α M-domain (human) (domain or fragment)”, in test [1], the binding entry is on record as “binds”.

B1: endogenous FNIP2 (folliculin-interacting protein 2) (protein, UniProt Q9P278 1-1114)
chain: MAPTLLQKLFNKRGSSGSSAAASAQGRAPKEGPAFSWSCSEFDLNEIRLIVYQDCDRRGRQVLFDSKAVQKIEEVTAQKTEDVPIKISAKCCQGSSSVSSSSSSSISSHSSSGGSSHHAKEQLPKYQYTRPASDVNMLGEMMFGSVAMSYKGSTLKIHYIRSPPQLMISKVFSARMGSFCGSTNNLQDSFEYINQDPNLGKLNTNQNSLGPCRTGSNLAHSTPVDMPSRGQNEDRDSGIARSASLSSLLITPFPSPSSSTSSSSSYQRRWLRSQTTSLENGIIPRRSTDETFSLAEETCSSNPAMVRRKKIAISIIFSLCEKEEAQRNFQDFFFSHFPLFESHMNRLKSAIEKAMISCRKIAESSLRVQFYVSRLMEALGEFRGTIWNLYSVPRIAEPVWLTMMSGTLEKNQLCQRFLKEFTLLIEQINKNQFFAALLTAVLTYHLAWVPTVMPVDHPPIKAFSEKRTSQSVNMLAKTHPYNPLWAQLGDLYGAIGSPVRLTRTVVVGKQKDLVQRILYVLTYFLRCSELQENQLTWSGNHGEGDQVLNGSKIITALEKGEVEESEYVVITVRNEPALVPPILPPTAAERHNPWPTGFPECPEGTDSRDLGLKPDKEANRRPEQGSEACSAGCLGPASDASWKPQNAFCGDEKNKEAPQDGSSRLPSCEVLGAGMKMDQQAVCELLKVEMPTRLPDRSVAWPCPDRHLREKPSLEKVTFQIGSFASPESDFESRMKKMEERVKACGPSLEASEAADVAQDPQVSRSPFKPGFQENVCCPQNRLSEGDEGESDKGFAEDRGSRNDMAADIAGQLSHAADLGTASHGAGGTGGRRLEATRGLYVKAAEGPVLEPVAPRCVQRGPGLVAGANIPCGDDNKKANFRTEGDIPRNESSDSALGDSDDEACASAMLDLGHGGDRTGGSLEVELPLPRSQSISTQNVRNFGRSLLAGYCPTYMPDLVLHGTGSDEKLKQCLVADLVHTVHHPVLDEPIAEAVCIIADTDKWSVQVATSQRKVTDNMKLGQDVLVSSQVSSLLQSILQLYKLHLPADFCIMHLEDRLQEMYLKSKMLSEYLRGHTRVHVKELGVVLGIESNDLPLLTAIASTHSPYVAQILL
As to B1, the binding result in test [2] is given as “no binding”; in test [3], “no binding”; in test [4], “binds”.

B2: endogenous FNIP1 (folliculin-interacting protein 1) (protein, UniProt Q8TF40 1-1166)
chain: MAPTLFQKLFSKRTGLGAPGRDARDPDCGFSWPLPEFDPSQIRLIVYQDCERRGRNVLFDSSVKRRNEDISVSKLGSDAQVKVFGKCCQLKPGGDSSSSLDSSVTSSSDIKDQCLKYQGSRCSSDANMLGEMMFGSVAMSYKGSTLKIHQIRSPPQLMLSKVFTARTGSSICGSLNTLQDSLEFINQDNNTLKADNNTVINGLLGNIGLSQFCSPRRAFSEQGPLRLIRSASFFAVHSNPMDMPGRELNEDRDSGIARSASLSSLLITPFPSPNSSLTRSCASSYQRRWRRSQTTSLENGVFPRWSIEESFNLSDESCGPNPGIVRKKKIAIGVIFSLSKDEDENNKFNEFFFSHFPLFESHMNKLKSAIEQAMKMSRRSADASQRSLAYNRIVDALNEFRTTICNLYTMPRIGEPVWLTMMSGTPEKNHLCYRFMKEFTFLMENASKNQFLPALITAVLTNHLAWVPTVMPNGQPPIKIFLEKHSSQSVDMLAKTHPYNPLWAQLGDLYGAIGSPVRLARTVVVGKRQDMVQRLLYFLTYFIRCSELQETHLLENGEDEAIVMPGTVITTTLEKGEIEESEYVLVTMHRNKSSLLFKESEEIRTPNCNCKYCSHPLLGQNVENISQQEREDIQNSSKELLGISDECQMISPSDCQEENAVDVKQYRDKLRTCFDAKLETVVCTGSVPVDKCALSESGLESTEETWQSEKLLDSDSHTGKAMRSTGMVVEKKPPDKIVPASFSCEAAQTKVTFLIGDSMSPDSDTELRSQAVVDQITRHHTKPLKEERGAIDQHQETKQTTKDQSGESDTQNMVSEEPCELPCWNHSDPESMSLFDEYFNDDSIETRTIDDVPFKTSTDSKDHCCMLEFSKILCTKNNKQNNEFCKCIETVPQDSCKTCFPQQDQRDTLSILVPHGDKESSDKKIAVGTEWDIPRNESSDSALGDSESEDTGHDMTRQVSSYYGGEQEDWAEEDEIPFPGSKLIEVSAVQPNIANFGRSLLGGYCSSYVPDFVLQGIGSDERFRQCLMSDLSHAVQHPVLDEPIAEAVCIIADMDKWTVQVASSQRRVTDNKLGKEVLVSSLVSNLLHSTLQLYKHNLSPNFCVMHLEDRLQELYFKSKMLSEYLRGQMRVHVKELGVVLGIESSDLPLLAAVASTHSPYVAQILL
Turning to B2, the binding result in test [2] and in test [4] was “binds” in each case.
